# Measured values: patent US20180015101A1, “COMPOSITIONS AND METHODS FOR ANTIGEN-SPECIFIC TOLERANCE” (INSERM (INSTITUT NATIONAL DE LA SANTÉ ET DE LA RECHERCHE …, priority 2014, published 2018)
# At least one structure is not confirmed: it was looked up by name or label, or the drawing left a doubt.
# Tested on: pIi-TTA/TetO-HO-1 double-transgenic mice
# Experiment: Doxycycline-induced HO-1 in pIi-TTA/TetO-HO-1 transgenic NOD mice and diabetes follow-up
# Type: in vivo
compound,measurement,setting,value
"C[C@H]1c2cccc(O)c2C(=O)C2=C(O)[C@]3(O)C(=O)C(C(N)=O)=C(O)[C@@H](N(C)C)[C@@H]3[C@@H](O)[C@@H]21 [doxycycline, Doxycycline hyclate]",HO-1 expression in BMDCs and splenic DCs,double-transgenic mice,dose-dependent increases
same,T1D incidence,"drinking water from four weeks of age, vs treated single transgenic or untreated littermates",lower T1D incidence
same,HO-1 levels in female NOD mice,mainly in DCs,restored HO-1 levels to those of NOR mice
same,leukocyte infiltration,"pIi-TTA/Tet-O-HO-1 vs Tet-O-HO-1 mice, dose-dependent",reduced leukocyte infiltration
